Taken from: PubChem BioAssay AID1224830 (NIAID, 2016)

- Assay: 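Regulators of TLR4 signalling towards TNF-alpha in macrophage-like cells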 (primary screen)
- Cell system: human THP-1 monocytic leukaemia cells, TNF dual-luciferase reporter clone, PMA-differentiated to macrophage-like cells
- Reagents: siRNA pool against human genes, 50 nM
- Timing: LPS for 4 h, given about 3 days after siRNA transfection
- Challenge: bacterial LPS (TLR4 ligand), 10 ng/ml
- Measurement: 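Ratio of firefly to renilla light, scaled to the plate median and expressed as a robust z-score per replicate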
- Reading the numbers: TNF reporter robust z-score: higher = stronger TNF reporter response to LPS
- Hit rule: 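a well is active when its z-score exceeds 2.8 or falls below -1.5; control wells carry no call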
In all, the deposit lists about 18,000 reagents; this is a random part of them. About 2,900 of them (16%) were called active. 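Calls are made per well; low scores hint the gene aids the LPS response, high scores that it dampens it.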 A number with no mark means an inactive call. Repeated entries: four replicate wells of each siRNA pool.

| gene knocked down | TNF reporter robust z-score |
| --- | --- |
| NIPA2 | -0.98 |
| NIPA2 | -0.42 |
| NIPA2 | -1.16 |
| NIPA2 | -1.73 (active) |
| DDT | -0.25 |
| DDT | 0.83 |
| DDT | 1.03 |
| DDT | 0.02 |
| TACR1 | -1.79 (active) |
| TACR1 | -1.06 |
| TACR1 | -1.34 |
| TACR1 | -0.2 |
| SF3B4 | 0.59 |
| SF3B4 | 0.91 |
| SF3B4 | 0.36 |
| SF3B4 | -0.03 |
| MECR | 0.57 |
| MECR | -0.14 |
| MECR | -0.26 |
| MECR | 0.67 |
| ZNF214 | -0.31 |
| ZNF214 | 0.74 |
| ZNF214 | -0.1 |
| ZNF214 | 0.58 |
| KIAA0586 | -1.34 |
| KIAA0586 | -1.09 |
| KIAA0586 | -1.57 (active) |
| KIAA0586 | -0.81 |
| TCP11 | 2.4 |
| TCP11 | 0.88 |
| TCP11 | 1.03 |
| TCP11 | 1.41 |
| TBC1D32 | 0.01 |
| TBC1D32 | 0.3 |
| TBC1D32 | 0.15 |
| TBC1D32 | 1.04 |
| ATP9A | 0.14 |
| ATP9A | -0.08 |
| ATP9A | -0.57 |
| ATP9A | -0.04 |
| CCT5 | -0.21 |
| CCT5 | -0.8 |
| CCT5 | -1.39 |
| CCT5 | -1.09 |
| PXMP2 | -0.99 |
| PXMP2 | -1.46 |
| PXMP2 | -0.73 |
| PXMP2 | -1.01 |
| SERPINA1 | -1.74 (active) |
| SERPINA1 | 1.54 |
| SERPINA1 | -0.32 |
| SERPINA1 | 1.39 |
| SMG9 | 2.61 |
| SMG9 | 1.53 |
| SMG9 | 0.88 |
| SMG9 | 2.48 |
| RNASE7 | -0.6 |
| RNASE7 | 0.07 |
| RNASE7 | -0.9 |
| RNASE7 | 1.25 |
| SCML2 | -0.79 |
| SCML2 | -0.88 |
| SCML2 | -0.71 |
| SCML2 | -0.49 |
| RNF19A | -0.48 |
| RNF19A | -0.23 |
| RNF19A | -1.56 (active) |
| RNF19A | -0.5 |
| ZNF688 | -0.89 |
| ZNF688 | -1.14 |
| ZNF688 | -1.09 |
| ZNF688 | -1 |
| SEPTIN12 | -0.83 |
| SEPTIN12 | -0.75 |
| SEPTIN12 | -0.64 |
| ZC3H8 | -0.62 |
| ZC3H8 | -0.99 |
| ZC3H8 | -0.63 |
| ZC3H8 | -0.67 |
| OR4B1 | 1.56 |
| OR4B1 | 2.29 |
| OR4B1 | -0.59 |
| OR4B1 | -0.37 |
| GPR62 | 0.06 |
| GPR62 | 1.28 |
| GPR62 | 0.34 |
| GPR62 | 1.18 |
| LCN9 | -0.86 |
| LCN9 | -0.62 |
| LCN9 | -0.71 |
| LCN9 | -0.36 |
| CD320 | -1.33 |
| CD320 | -0.14 |
| CD320 | -0.65 |
| CD320 | -0.15 |
| SSH2 | -0.27 |
| SSH2 | 0.4 |
| SSH2 | 0.15 |
| SSH2 | -0.67 |
| OXSR1 | 0.58 |
| OXSR1 | -0.87 |
| OXSR1 | -0.81 |
| OXSR1 | -0.33 |
| PTPN5 | -0.5 |
| PTPN5 | 0.26 |
| PTPN5 | -0.06 |
| PTPN5 | -0.04 |
| P2RY2 | -0.41 |
| P2RY2 | -0.6 |
| P2RY2 | -0.34 |
| P2RY2 | 0.87 |

Copied from the listing (14 entries):
| gene knocked down | TNF reporter robust z-score |
| --- | --- |
| ZC3H8 | -0.99 |
| ZC3H8 | -0.63 |
| ZC3H8 | -0.67 |
| OR4B1 | 1.56 |
| OR4B1 | 2.29 |
| OR4B1 | -0.59 |
| OR4B1 | -0.37 |
| GPR62 | 0.06 |
| GPR62 | 1.28 |
| GPR62 | 0.34 |
| GPR62 | 1.18 |
| LCN9 | -0.86 |
| LCN9 | -0.62 |
| LCN9 | -0.71 |
